The source of these data is PMC6925163.

Chains of the proteins cited; added tags and fusions are not shown. Lines headed by an entry give the natural chain unless they say otherwise; changes in a name come on top.
UniProt P0A1K9: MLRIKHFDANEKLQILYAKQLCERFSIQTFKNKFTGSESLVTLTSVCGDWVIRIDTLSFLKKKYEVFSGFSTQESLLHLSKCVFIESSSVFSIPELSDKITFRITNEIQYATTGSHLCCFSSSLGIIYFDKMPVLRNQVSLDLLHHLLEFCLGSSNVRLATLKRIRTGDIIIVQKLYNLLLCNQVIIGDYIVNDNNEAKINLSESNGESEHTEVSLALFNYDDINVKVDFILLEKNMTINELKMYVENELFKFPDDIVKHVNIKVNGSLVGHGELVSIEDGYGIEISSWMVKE
UniProt Q04640: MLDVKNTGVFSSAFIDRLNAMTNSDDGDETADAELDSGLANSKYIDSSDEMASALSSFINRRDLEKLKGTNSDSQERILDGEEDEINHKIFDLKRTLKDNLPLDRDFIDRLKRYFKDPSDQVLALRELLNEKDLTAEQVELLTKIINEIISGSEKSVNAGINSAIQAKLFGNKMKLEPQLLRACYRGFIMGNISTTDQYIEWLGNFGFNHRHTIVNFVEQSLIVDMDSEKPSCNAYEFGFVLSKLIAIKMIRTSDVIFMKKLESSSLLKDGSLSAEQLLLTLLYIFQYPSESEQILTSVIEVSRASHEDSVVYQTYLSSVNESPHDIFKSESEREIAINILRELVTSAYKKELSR

The target of assay [1] is GST‐Spa33^C (Shigella flexneri) (UniProt P0A1K9). The assay is described as follows: pull-down; proteins expressed separately, cell suspensions mixed before sonication; premix of clarified lysates on glutathione‐sepharose beads, washed, eluted; anti‐His Western blot and Coomassie.
Assay [2] has as its target GST‐MxiC (Shigella flexneri) (UniProt Q04640). The assay is described as follows: pull-down; GST fusion bound to GST‐Bind resin from cleared lysate and washed five times with PBS; E. coli lysate of the His-tagged protein applied overnight at 4°C; eluted with 50 mmol/L reduced glutathione (40 mmol/L Tris pH 8.0, 500 mmol/L NaCl); anti‐His Western blot and Coomassie; only the target purified.

Assay [3] has as its target GST‐Spa33 (Shigella flexneri) (UniProt P0A1K9). The assay is described as follows: pull-down; GST‐Spa33 produced in E. coli (Top10), cell lysate incubated with glutathione‐sepharose beads; eluted fractions on SDS‐PAGE, Coomassie.

No constants are given. Whether binding was seen depends on the method and setting. In cells and extracts the contact can be indirect. Some entries that bind do so weakly or less than the wild type.

With “Spa33 full-length with hexa-histidine at both ends (His‐Spa33‐His, Spa33^FL) (from UniProt P0A1K9 1-293)”, the binding entry in assay [1] and in assay [2] was “binds” in each case.
On to “Spa33^CC produced from pBAD‐Spa33^C (from UniProt P0A1K9 237-293) (domain or fragment)”, for which the binding result in assay [2] is on record as “binds”.
“Spa33^CC produced from pGEX4T1‐Spa33 (from UniProt P0A1K9 237-293) (domain or fragment)”: in assay [3], the binding result is on record as “binds”.
Consider “Spa33^C‐His produced from pBAD‐Spa33^C (from UniProt P0A1K9 192-293) (domain or fragment)”, for which the binding entry in assay [2] is given as “binds”.
